Compound in this experiment: Nc1ncnc2c1ncn2[C@@H]1O[C@H](COP(=O)(O)OP(=O)(O)NP(=O)(O)O)[C@@H](O)[C@H]1O [adenylyl imidodiphosphate]
Nature of the experiment: NP40-soluble protein abundance relative to vehicle (solubility fold change) (ratio); higher = more soluble protein in presence of AMP-PNP. The gist of the method:
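Data come from three independent experiments in which Dounce-homogenised Jurkat crude lysate was treated at eight concentrations from 0.1 to 10 mM. Treatment ran 10 min at room temperature and then 3 min at 37 °C, after which 0.8% NP40 and benzonase were added for 60 min at 4 °C before ultracentrifugation. The supernatant underwent TMT labelling and LC-MS/MS, and vsn-normalised intensities were expressed as fold change against the detergent-processed vehicle in each replicate.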

Chains of the proteins cited; added tags and fusions are not shown. Lines headed by an entry give the natural chain unless they say otherwise; changes in a name come on top.
UniProt Q9NQC7: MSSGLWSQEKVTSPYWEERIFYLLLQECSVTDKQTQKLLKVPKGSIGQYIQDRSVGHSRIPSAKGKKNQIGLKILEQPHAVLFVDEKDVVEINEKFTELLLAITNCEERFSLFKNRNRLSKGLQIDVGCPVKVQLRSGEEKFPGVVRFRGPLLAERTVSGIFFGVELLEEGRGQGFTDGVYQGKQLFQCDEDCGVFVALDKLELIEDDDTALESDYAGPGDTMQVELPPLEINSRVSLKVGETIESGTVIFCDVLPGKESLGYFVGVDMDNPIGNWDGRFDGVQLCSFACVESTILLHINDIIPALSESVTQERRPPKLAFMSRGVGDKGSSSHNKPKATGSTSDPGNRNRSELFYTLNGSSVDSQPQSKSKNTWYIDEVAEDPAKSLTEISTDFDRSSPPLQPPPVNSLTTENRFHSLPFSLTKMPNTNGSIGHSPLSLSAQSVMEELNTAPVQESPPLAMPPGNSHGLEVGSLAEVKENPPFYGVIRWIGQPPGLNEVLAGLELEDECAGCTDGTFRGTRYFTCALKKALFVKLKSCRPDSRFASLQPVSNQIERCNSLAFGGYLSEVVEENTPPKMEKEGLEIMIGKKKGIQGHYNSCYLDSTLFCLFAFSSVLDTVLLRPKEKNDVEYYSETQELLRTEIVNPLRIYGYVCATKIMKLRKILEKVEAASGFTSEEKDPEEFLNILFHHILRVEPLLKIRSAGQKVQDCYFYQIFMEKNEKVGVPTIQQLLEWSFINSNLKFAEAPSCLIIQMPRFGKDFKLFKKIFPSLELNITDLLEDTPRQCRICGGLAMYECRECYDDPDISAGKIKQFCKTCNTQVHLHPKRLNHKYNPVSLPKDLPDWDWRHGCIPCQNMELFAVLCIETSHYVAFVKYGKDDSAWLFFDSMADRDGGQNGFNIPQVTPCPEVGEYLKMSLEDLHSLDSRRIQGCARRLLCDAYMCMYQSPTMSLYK
UniProt Q9NQZ2: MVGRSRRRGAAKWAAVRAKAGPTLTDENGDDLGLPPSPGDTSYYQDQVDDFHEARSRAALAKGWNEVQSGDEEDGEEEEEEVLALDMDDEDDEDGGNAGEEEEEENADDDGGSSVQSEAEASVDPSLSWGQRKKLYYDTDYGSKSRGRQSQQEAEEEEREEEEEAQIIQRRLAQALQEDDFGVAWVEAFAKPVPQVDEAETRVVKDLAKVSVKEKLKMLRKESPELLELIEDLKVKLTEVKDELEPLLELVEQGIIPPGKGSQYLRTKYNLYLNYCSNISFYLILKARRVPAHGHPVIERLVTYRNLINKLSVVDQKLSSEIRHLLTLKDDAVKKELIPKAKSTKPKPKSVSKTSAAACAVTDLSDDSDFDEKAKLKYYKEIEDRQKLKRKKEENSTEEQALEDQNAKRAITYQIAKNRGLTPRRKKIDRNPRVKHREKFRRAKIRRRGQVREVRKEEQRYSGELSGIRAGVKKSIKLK
UniProt Q9NTM9: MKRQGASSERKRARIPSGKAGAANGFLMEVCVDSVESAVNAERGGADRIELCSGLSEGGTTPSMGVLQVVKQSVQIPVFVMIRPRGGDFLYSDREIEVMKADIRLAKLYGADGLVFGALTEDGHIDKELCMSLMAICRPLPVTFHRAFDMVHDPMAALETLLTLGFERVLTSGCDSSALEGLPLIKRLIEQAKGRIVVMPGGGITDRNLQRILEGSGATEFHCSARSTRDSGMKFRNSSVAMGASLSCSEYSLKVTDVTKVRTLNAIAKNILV
UniProt Q9NRN7: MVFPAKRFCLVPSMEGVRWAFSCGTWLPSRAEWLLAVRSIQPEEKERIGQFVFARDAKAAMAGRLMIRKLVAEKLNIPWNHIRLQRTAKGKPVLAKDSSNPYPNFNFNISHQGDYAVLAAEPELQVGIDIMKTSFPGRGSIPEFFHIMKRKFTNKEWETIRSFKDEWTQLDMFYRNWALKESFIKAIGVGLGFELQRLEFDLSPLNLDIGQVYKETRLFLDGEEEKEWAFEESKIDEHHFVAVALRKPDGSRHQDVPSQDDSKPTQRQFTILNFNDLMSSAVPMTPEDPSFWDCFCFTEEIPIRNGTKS
UniProt Q9NQT4, whole entry: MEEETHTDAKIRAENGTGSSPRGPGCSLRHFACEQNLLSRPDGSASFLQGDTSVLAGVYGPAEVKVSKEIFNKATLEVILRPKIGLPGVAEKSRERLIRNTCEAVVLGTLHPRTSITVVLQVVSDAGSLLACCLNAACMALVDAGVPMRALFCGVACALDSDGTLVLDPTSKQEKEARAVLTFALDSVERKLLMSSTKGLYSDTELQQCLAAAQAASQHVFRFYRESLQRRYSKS
UniProt Q9NW81: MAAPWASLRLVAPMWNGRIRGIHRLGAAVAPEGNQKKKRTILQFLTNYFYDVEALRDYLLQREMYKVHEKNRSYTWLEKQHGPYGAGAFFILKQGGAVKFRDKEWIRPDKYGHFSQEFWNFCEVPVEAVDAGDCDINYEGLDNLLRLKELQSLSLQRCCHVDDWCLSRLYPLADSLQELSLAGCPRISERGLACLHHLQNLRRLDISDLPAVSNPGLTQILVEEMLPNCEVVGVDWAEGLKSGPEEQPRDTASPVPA
UniProt Q9P2R7: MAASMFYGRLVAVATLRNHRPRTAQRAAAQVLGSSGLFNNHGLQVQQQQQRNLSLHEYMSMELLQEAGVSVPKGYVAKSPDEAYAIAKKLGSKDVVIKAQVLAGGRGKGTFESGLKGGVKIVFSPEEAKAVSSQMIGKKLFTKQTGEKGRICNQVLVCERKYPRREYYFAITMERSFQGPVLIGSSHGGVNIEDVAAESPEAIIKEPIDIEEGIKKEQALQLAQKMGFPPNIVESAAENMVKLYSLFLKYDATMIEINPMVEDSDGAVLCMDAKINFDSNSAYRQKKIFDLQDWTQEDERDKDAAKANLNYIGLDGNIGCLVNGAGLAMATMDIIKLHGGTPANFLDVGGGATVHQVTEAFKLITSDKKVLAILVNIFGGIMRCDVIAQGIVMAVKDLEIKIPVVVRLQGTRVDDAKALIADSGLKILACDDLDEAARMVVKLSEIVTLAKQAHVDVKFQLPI
UniProt Q9NZ32, whole entry: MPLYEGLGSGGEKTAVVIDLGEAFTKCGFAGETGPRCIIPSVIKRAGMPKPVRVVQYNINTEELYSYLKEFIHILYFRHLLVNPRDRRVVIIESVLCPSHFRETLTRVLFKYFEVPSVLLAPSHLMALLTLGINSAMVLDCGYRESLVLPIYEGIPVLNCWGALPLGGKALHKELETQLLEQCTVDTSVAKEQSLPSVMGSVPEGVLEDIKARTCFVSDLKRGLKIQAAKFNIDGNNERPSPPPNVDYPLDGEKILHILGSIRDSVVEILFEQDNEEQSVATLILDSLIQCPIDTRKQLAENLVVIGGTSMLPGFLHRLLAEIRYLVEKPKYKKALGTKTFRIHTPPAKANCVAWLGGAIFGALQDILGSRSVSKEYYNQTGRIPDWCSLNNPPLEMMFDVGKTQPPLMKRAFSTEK
UniProt Q9NZC3: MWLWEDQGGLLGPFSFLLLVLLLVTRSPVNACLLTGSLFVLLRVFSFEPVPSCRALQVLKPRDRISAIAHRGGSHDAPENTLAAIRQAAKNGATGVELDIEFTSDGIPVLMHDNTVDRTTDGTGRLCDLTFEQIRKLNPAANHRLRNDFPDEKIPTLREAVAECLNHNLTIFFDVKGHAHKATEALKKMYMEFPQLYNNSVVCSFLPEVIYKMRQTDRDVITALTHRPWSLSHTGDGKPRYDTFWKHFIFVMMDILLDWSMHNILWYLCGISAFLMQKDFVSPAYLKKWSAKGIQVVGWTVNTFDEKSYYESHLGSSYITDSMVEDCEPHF
UniProt Q9NQS1: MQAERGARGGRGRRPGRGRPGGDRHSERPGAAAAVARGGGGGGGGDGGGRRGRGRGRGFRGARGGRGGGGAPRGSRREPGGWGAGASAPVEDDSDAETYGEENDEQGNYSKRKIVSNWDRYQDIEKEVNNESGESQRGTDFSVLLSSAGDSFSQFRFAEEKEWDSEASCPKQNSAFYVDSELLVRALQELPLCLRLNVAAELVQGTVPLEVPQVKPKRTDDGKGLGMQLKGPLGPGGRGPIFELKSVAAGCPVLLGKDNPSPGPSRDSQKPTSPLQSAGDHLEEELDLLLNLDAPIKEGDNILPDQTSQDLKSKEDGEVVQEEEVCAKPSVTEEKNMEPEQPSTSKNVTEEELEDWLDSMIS
UniProt Q9NRW4: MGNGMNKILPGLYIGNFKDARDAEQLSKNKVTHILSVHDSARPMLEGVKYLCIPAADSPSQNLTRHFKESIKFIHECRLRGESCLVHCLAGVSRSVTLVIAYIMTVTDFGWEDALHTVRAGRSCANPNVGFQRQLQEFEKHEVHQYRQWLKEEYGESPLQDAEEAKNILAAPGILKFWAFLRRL
UniProt Q9NWS6: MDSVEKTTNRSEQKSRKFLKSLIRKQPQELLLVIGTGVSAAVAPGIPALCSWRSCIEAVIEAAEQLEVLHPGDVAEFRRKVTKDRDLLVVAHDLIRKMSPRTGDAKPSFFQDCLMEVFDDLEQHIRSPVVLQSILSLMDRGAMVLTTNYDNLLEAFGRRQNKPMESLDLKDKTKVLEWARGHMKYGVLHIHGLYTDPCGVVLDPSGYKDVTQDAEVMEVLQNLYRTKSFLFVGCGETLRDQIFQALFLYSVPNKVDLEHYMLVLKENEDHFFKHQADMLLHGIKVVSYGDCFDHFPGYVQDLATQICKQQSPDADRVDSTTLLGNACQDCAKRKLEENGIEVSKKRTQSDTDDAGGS
UniProt Q9NWZ8: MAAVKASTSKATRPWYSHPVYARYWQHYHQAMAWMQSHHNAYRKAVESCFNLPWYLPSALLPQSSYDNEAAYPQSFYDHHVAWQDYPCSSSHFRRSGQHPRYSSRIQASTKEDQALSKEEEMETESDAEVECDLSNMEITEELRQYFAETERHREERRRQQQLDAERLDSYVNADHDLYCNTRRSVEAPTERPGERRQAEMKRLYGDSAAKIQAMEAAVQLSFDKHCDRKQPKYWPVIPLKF
UniProt Q9NVV4: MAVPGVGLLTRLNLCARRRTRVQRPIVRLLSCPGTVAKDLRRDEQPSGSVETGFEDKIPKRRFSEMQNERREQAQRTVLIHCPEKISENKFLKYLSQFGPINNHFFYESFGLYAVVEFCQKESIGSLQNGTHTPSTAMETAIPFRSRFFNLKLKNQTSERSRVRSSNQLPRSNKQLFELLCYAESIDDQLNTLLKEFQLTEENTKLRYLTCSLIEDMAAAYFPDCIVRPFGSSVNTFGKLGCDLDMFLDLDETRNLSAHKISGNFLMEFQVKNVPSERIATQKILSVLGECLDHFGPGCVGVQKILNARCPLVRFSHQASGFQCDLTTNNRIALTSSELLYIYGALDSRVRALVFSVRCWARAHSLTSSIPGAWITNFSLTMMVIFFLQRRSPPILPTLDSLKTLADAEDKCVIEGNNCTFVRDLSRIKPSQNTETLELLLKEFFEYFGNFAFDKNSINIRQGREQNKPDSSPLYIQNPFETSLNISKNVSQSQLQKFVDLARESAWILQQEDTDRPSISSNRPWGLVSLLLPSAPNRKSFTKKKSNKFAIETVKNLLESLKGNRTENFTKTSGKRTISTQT
UniProt Q9NQW6: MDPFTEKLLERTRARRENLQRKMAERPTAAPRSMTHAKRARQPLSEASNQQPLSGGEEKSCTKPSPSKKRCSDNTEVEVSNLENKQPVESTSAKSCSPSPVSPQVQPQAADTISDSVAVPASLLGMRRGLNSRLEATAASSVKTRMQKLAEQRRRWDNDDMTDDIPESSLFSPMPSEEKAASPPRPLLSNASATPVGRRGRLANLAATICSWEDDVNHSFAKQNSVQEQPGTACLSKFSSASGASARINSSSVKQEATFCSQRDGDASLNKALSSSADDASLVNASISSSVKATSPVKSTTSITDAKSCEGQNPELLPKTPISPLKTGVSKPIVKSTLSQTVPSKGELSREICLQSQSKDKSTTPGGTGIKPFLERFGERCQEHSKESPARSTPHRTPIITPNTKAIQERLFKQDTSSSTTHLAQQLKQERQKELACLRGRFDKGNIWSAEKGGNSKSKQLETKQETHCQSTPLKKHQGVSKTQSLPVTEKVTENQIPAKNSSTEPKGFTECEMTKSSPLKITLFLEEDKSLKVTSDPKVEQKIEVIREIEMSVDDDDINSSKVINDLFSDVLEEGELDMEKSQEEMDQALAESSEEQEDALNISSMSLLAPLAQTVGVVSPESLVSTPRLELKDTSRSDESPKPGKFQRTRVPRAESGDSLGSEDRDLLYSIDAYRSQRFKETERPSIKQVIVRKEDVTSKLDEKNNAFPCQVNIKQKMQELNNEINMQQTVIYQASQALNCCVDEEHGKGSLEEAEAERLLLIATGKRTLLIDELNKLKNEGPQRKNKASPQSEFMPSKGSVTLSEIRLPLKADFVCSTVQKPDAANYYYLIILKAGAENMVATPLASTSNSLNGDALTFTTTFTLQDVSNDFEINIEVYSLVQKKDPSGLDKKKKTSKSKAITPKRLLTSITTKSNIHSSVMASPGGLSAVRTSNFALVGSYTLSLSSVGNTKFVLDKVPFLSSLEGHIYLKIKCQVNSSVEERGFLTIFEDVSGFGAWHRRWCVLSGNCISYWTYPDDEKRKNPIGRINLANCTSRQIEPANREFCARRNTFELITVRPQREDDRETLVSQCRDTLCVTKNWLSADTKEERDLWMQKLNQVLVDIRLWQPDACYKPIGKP

± gives the standard deviation of the averaged measurements. The list shows a part of the results, in another mix than the full data. Most values lie at the level of the controls, where differences are scatter.

With HECA (UniProt Q9UBI9), the NP40-soluble protein abundance is, setting by setting: (concentration: 0.1mM) 0.9675 ± 0.0064; (concentration: 0.5mM) 0.989 ± 0.032.

Regarding SIPA1L2 (UniProt Q9P2F8), the NP40-soluble protein abundance amounted to 1.043 ± 0.003 (concentration: 0.1mM) and 1.01 ± 0.025 (concentration: 0.5mM).

For LARS (UniProt Q9P2J5), the NP40-soluble protein abundance runs as follows: (concentration: 0.1mM) 1.04 ± 0.041; (concentration: 0.5mM) 1 ± 0.087.

For RAD18 (UniProt Q9NS91), the NP40-soluble protein abundance reads like this: (concentration: 0.1mM) 1.02 ± 0.026; (concentration: 0.5mM) 1.01 ± 0.016.

Consider UniProt Q9NZ01, for which the NP40-soluble protein abundance (concentration: 0.1mM) is 1.05 ± 0.054 and the NP40-soluble protein abundance (concentration: 0.5mM) turned out to be 1.02 ± 0.12.

On to UniProt Q9NQC7 and related entries, for which the NP40-soluble protein abundance is, setting by setting: (concentration: 0.1mM) 0.992 ± 0.065; (concentration: 0.5mM) 0.976 ± 0.031.

As for UniProt Q9NSI8 and related entries, the NP40-soluble protein abundance amounted to 1.01 ± 0.018 (concentration: 0.1mM) and 1.01 ± 0.056 (concentration: 0.5mM).

As for UTP3 (UniProt Q9NQZ2), the NP40-soluble protein abundance is, setting by setting: (concentration: 0.1mM) 1.03 ± 0.018; (concentration: 0.5mM) 1.04 ± 0.022.

Regarding DNAJC17 (UniProt Q9NVM6), the NP40-soluble protein abundance is 1.03 ± 0.02 (concentration: 0.1mM) and 1.04 ± 0.031 (concentration: 0.5mM).

Regarding CUTC (UniProt Q9NTM9), the NP40-soluble protein abundance is, setting by setting: (concentration: 0.1mM) 1.03 ± 0.013; (concentration: 0.5mM) 1.01 ± 0.049.

Consider UniProt Q9NX74, for which the NP40-soluble protein abundance is, setting by setting: (concentration: 0.1mM) 0.985 ± 0.02; (concentration: 0.5mM) 1 ± 0.012.

Take RNF181 (UniProt Q9P0P0): the NP40-soluble protein abundance reads like this: (concentration: 0.1mM) 0.991 ± 0.022; (concentration: 0.5mM) 0.988 ± 0.043.

INTS10 (UniProt Q9NVR2): the NP40-soluble protein abundance by setting is: (concentration: 0.1mM) 0.999 ± 0.028; (concentration: 0.5mM) 0.988 ± 0.019.

UniProt Q9P2X0-2|Q9P2X0: the NP40-soluble protein abundance was determined as 1.02 ± 0.031 (concentration: 0.1mM) and 1 ± 0.015 (concentration: 0.5mM).

Take UniProt Q9P2A4 and related entries: the NP40-soluble protein abundance reads like this: (concentration: 0.1mM) 0.998 ± 0.022; (concentration: 0.5mM) 1.02 ± 0.054.

Consider AASDHPPT (UniProt Q9NRN7), for which the NP40-soluble protein abundance was 0.971 ± 0.047 (concentration: 0.1mM) and 0.945 ± 0.098 (concentration: 0.5mM).

With UniProt Q9P0J0 and related entries, the NP40-soluble protein abundance came to 0.996 ± 0.057 (concentration: 0.1mM) and 0.93 ± 0.11 (concentration: 0.5mM).

On to MRPL39 (UniProt Q9NYK5), for which the NP40-soluble protein abundance by setting is: (concentration: 0.1mM) 1.04 ± 0.079; (concentration: 0.5mM) 1.01 ± 0.066.

As for EXOSC5 (UniProt Q9NQT4), the NP40-soluble protein abundance reads like this: (concentration: 0.1mM) 0.976 ± 0.021; (concentration: 0.5mM) 1.01 ± 0.031.

For the target ABHD10 (UniProt Q9NUJ1), the NP40-soluble protein abundance (concentration: 0.1mM) was found to be 0.9984 ± 0.0061 and the NP40-soluble protein abundance (concentration: 0.5mM) was 1.03 ± 0.054.

In the case of UniProt Q9NPQ8 and related entries, the NP40-soluble protein abundance was determined as 1.0724 ± 0.0002 (concentration: 0.1mM) and 1.04 ± 0.036 (concentration: 0.5mM).

Consider SAE1 (UniProt Q9UBE0), for which the NP40-soluble protein abundance reads like this: (concentration: 0.1mM) 0.982 ± 0.024; (concentration: 0.5mM) 1.03 ± 0.029.

Consider PDRG1 (UniProt Q9NUG6), for which the NP40-soluble protein abundance by setting is: (concentration: 0.1mM) 0.977 ± 0.016; (concentration: 0.5mM) 1.02 ± 0.047.

For KCMF1 (UniProt Q9P0J7), the NP40-soluble protein abundance reads like this: (concentration: 0.1mM) 0.978 ± 0.041; (concentration: 0.5mM) 1 ± 0.06.

On to NECAP2 (UniProt Q9NVZ3), for which the NP40-soluble protein abundance is, setting by setting: (concentration: 0.1mM) 0.993 ± 0.015; (concentration: 0.5mM) 1.01 ± 0.033.

Take SMARCAL1 (UniProt Q9NZC9): the NP40-soluble protein abundance by setting is: (concentration: 0.1mM) 0.987 ± 0.021; (concentration: 0.5mM) 1 ± 0.014.

On to UniProt Q9P0K8 and related entries, for which the NP40-soluble protein abundance is, setting by setting: (concentration: 0.1mM) 0.9754 ± 0.0063; (concentration: 0.5mM) 0.966 ± 0.03.

As to UniProt Q9NVH0 and related entries, the NP40-soluble protein abundance is 1 ± 0.018 (concentration: 0.1mM) and 0.974 ± 0.042 (concentration: 0.5mM).

Take UniProt Q9NVI7-2: the NP40-soluble protein abundance is 1.02 ± 0.079 (concentration: 0.1mM) and 1.08 ± 0.12 (concentration: 0.5mM).

Take UniProt Q9NVR5: the NP40-soluble protein abundance amounted to 0.995 ± 0.022 (concentration: 0.1mM) and 0.973 ± 0.04 (concentration: 0.5mM).

Take UniProt Q9NQS7 and related entries: the NP40-soluble protein abundance runs as follows: (concentration: 0.1mM) 1.0078 ± 0.0008; (concentration: 0.5mM) 1.07 ± 0.1.

UniProt Q9NW81 and related entries: the NP40-soluble protein abundance runs as follows: (concentration: 0.1mM) 1.05 ± 0.047; (concentration: 0.5mM) 1 ± 0.015.

Consider NUDT15 (UniProt Q9NV35), for which the NP40-soluble protein abundance by setting is: (concentration: 0.1mM) 0.981 ± 0.023; (concentration: 0.5mM) 1 ± 0.032.

Consider UniProt Q9P2R7 and related entries, for which the NP40-soluble protein abundance is 0.9695 ± 0.0067 (concentration: 0.1mM) and 1 ± 0.012 (concentration: 0.5mM).

For the target ACTR10 (UniProt Q9NZ32), the NP40-soluble protein abundance came out at 1.01 ± 0.011 (concentration: 0.1mM) and 0.993 ± 0.012 (concentration: 0.5mM).

With PPP4R2 (UniProt Q9NY27), the NP40-soluble protein abundance runs as follows: (concentration: 0.1mM) 1.04 ± 0.032; (concentration: 0.5mM) 1.04 ± 0.04.

With UniProt Q9NWY4, the NP40-soluble protein abundance by setting is: (concentration: 0.1mM) 1.02 ± 0.023; (concentration: 0.5mM) 1 ± 0.041.

For GDE1 (UniProt Q9NZC3), the NP40-soluble protein abundance is 0.995 ± 0.036 (concentration: 0.1mM) and 1.02 ± 0.048 (concentration: 0.5mM).

In the case of ZNF219 (UniProt Q9P2Y4), the NP40-soluble protein abundance was 0.99 ± 0.032 (concentration: 0.1mM) and 1.01 ± 0.038 (concentration: 0.5mM).

Turning to USE1 (UniProt Q9NZ43), the NP40-soluble protein abundance (concentration: 0.1mM) turned out to be 0.979 ± 0.012 and the NP40-soluble protein abundance (concentration: 0.5mM) was found to be 1 ± 0.052.

In the case of TERF2IP (UniProt Q9NYB0), the NP40-soluble protein abundance is, setting by setting: (concentration: 0.1mM) 0.974 ± 0.0055; (concentration: 0.5mM) 1 ± 0.037.

On to UniProt Q9NXE8, for which the NP40-soluble protein abundance by setting is: (concentration: 0.1mM) 0.972 ± 0.0037; (concentration: 0.5mM) 0.993 ± 0.018.

With C9orf78 (UniProt Q9NZ63), the NP40-soluble protein abundance by setting is: (concentration: 0.1mM) 0.975 ± 0.032; (concentration: 0.5mM) 1.01 ± 0.054.

Turning to UniProt Q9NWF9 and related entries, the NP40-soluble protein abundance was found to be 0.997 ± 0.057 (concentration: 0.1mM) and 0.9909 ± 0.0065 (concentration: 0.5mM).

Consider UniProt Q9NYV4 and related entries, for which the NP40-soluble protein abundance is, setting by setting: (concentration: 0.1mM) 0.995 ± 0.029; (concentration: 0.5mM) 1.02 ± 0.055.

Turning to AVEN (UniProt Q9NQS1), the NP40-soluble protein abundance (concentration: 0.1mM) is 0.964 ± 0.058 and the NP40-soluble protein abundance (concentration: 0.5mM) amounted to 0.986 ± 0.089.

For UniProt Q9NRW4 and related entries, the NP40-soluble protein abundance reads like this: (concentration: 0.1mM) 0.989 ± 0.031; (concentration: 0.5mM) 0.977 ± 0.011.

Turning to FAM118A (UniProt Q9NWS6), the NP40-soluble protein abundance (concentration: 0.1mM) came to 0.971 ± 0.029 and the NP40-soluble protein abundance (concentration: 0.5mM) worked out at 1 ± 0.016.

As to GEMIN8 (UniProt Q9NWZ8), the NP40-soluble protein abundance runs as follows: (concentration: 0.1mM) 1 ± 0.029; (concentration: 0.5mM) 0.987 ± 0.031.

Take OXSM (UniProt Q9NWU1): the NP40-soluble protein abundance reads like this: (concentration: 0.1mM) 0.987 ± 0.01; (concentration: 0.5mM) 0.999 ± 0.015.

Take UniProt Q9NUL5 and related entries: the NP40-soluble protein abundance worked out at 1.06 ± 0.023 (concentration: 0.1mM) and 1.04 ± 0.029 (concentration: 0.5mM).

Regarding UniProt Q9NX07 and related entries, the NP40-soluble protein abundance runs as follows: (concentration: 0.1mM) 0.9819 ± 0.006; (concentration: 0.5mM) 0.988 ± 0.028.

Turning to HINT3 (UniProt Q9NQE9), the NP40-soluble protein abundance runs as follows: (concentration: 0.1mM) 0.983 ± 0.019; (concentration: 0.5mM) 0.989 ± 0.017.

With MTPAP (UniProt Q9NVV4), the NP40-soluble protein abundance (concentration: 0.1mM) is 0.759 ± 0.034 and the NP40-soluble protein abundance (concentration: 0.5mM) is 0.711 ± 0.03.

As to UniProt Q9NQW6 and related entries, the NP40-soluble protein abundance stood at 0.98 ± 0.031 (concentration: 0.1mM) and 1.01 ± 0.023 (concentration: 0.5mM).

Take UniProt Q9P287 and related entries: the NP40-soluble protein abundance was found to be 1.02 ± 0.026 (concentration: 0.1mM) and 1.004 ± 0.006 (concentration: 0.5mM).

With UniProt Q9NSB8 and related entries, the NP40-soluble protein abundance reads like this: (concentration: 0.1mM) 0.989 ± 0.046; (concentration: 0.5mM) 1.01 ± 0.045.

For the target TMEM160 (UniProt Q9NX00), the NP40-soluble protein abundance by setting is: (concentration: 0.1mM) 0.996 ± 0.05; (concentration: 0.5mM) 1.01 ± 0.058.

With KLC4 (UniProt Q9NSK0), the NP40-soluble protein abundance (concentration: 0.1mM) was 1.01 ± 0.057 and the NP40-soluble protein abundance (concentration: 0.5mM) worked out at 0.991 ± 0.07.

For the target UniProt Q9NV70 and related entries, the NP40-soluble protein abundance is, setting by setting: (concentration: 0.1mM) 0.988 ± 0.036; (concentration: 0.5mM) 0.973 ± 0.019.

UniProt Q9UBL0 and related entries: the NP40-soluble protein abundance reads like this: (concentration: 0.1mM) 0.961 ± 0.024; (concentration: 0.5mM) 0.988 ± 0.039.
